Some of the results follow.
What was measured:
Experiment in all cases: log2 fold change, soluble protein after heating vs DMSO (PISA); higher = thermal stabilisation; K562 lysate, 10 uM; active = over 0.2 and 3.5 SD of the protein, either way, in both replicates (recomputed)
[1] = compound: C1=CC=C(C=C1)[C@H](COC2=CC3=C(C=C2)NC(=O)N3)NC(=O)C4=CC=CN(C4=O)CC5=CC(=C(C=C5)F)F
How it was run: (§1)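 Dounce homogenisation of K562 pellets in PBS pH 7.4 with 1 mM MgCl2 produced a crude extract, used at 1 mg/mL protein. Exposure to 10 μM compound lasted 30 min, and aliquots were then heated for 3 min across 48°C-58°C, pooled and brought to 0.5% NP-40 at 4°C. The supernatant after 21,000xg for 90 min was quantified by TMTpro 16plex LC-MS/MS with channel sums equalised. Duplicate values are given as log-two fold change in thermal stability relative to solvent controls.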

The chains behind the UniProt entries cited, without tags or fusion partners. Where a name states a change or a piece, a line headed by the entry shows the natural chain unless it says otherwise.
UniProt Q96KR6: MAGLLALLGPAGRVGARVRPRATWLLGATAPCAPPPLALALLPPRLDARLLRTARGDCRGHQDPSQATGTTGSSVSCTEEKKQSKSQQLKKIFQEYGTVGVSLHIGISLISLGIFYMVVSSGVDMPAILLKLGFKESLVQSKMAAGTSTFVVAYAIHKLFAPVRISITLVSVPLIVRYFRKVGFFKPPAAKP
UniProt Q7Z309: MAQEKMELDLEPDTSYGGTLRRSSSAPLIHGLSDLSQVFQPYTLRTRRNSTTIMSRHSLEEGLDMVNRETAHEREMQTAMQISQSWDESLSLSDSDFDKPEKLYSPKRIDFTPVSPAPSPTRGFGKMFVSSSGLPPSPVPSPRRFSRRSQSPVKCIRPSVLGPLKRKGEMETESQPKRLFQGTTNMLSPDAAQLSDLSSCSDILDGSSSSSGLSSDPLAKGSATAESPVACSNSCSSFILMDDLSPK
UniProt Q9UPT5: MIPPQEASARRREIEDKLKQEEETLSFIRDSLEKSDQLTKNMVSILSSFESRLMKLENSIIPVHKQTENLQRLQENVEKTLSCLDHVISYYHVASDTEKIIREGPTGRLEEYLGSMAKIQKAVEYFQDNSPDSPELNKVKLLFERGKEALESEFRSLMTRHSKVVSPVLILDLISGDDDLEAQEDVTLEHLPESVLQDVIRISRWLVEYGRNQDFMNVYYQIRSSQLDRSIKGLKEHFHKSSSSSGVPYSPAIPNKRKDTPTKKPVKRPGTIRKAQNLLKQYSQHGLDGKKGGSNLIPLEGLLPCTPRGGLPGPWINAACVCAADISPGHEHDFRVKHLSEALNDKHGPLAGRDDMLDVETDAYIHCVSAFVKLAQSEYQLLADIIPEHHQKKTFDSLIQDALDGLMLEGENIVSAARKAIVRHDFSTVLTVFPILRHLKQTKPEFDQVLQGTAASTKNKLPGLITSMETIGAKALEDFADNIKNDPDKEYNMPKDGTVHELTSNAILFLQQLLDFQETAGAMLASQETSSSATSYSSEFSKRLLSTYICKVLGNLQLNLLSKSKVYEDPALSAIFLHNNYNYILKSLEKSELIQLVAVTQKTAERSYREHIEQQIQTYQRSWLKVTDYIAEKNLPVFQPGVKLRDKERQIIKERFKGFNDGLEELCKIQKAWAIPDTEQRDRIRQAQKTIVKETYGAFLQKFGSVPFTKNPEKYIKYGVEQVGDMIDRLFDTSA
UniProt P10768: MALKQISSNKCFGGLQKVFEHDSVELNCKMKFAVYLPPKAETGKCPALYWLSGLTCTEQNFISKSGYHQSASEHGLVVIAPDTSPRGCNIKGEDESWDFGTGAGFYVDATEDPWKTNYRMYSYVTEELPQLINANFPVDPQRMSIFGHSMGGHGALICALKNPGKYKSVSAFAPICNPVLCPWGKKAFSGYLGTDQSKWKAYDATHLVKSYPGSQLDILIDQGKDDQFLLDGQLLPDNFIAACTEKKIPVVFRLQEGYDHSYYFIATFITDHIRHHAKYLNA
UniProt Q96A26: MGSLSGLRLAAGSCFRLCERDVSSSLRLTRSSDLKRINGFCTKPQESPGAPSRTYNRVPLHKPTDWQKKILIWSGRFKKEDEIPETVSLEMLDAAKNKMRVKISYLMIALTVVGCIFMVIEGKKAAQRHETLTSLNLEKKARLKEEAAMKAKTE
UniProt P11474: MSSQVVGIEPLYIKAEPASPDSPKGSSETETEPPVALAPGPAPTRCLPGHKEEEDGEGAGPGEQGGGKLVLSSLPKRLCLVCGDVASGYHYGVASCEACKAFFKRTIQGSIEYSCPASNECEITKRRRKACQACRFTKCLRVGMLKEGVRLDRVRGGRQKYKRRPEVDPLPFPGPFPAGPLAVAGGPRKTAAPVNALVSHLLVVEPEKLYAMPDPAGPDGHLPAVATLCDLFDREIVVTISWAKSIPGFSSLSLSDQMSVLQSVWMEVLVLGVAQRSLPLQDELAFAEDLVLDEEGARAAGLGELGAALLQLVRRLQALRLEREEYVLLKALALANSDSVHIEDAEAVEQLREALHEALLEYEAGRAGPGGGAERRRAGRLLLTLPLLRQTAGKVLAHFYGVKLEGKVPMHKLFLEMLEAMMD
UniProt Q9NSI2: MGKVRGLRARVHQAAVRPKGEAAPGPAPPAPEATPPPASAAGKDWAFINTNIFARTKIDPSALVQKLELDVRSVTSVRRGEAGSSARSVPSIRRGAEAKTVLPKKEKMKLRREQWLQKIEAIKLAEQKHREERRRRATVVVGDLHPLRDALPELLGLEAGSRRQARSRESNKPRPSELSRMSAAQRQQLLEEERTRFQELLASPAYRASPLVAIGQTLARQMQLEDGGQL
UniProt Q01780: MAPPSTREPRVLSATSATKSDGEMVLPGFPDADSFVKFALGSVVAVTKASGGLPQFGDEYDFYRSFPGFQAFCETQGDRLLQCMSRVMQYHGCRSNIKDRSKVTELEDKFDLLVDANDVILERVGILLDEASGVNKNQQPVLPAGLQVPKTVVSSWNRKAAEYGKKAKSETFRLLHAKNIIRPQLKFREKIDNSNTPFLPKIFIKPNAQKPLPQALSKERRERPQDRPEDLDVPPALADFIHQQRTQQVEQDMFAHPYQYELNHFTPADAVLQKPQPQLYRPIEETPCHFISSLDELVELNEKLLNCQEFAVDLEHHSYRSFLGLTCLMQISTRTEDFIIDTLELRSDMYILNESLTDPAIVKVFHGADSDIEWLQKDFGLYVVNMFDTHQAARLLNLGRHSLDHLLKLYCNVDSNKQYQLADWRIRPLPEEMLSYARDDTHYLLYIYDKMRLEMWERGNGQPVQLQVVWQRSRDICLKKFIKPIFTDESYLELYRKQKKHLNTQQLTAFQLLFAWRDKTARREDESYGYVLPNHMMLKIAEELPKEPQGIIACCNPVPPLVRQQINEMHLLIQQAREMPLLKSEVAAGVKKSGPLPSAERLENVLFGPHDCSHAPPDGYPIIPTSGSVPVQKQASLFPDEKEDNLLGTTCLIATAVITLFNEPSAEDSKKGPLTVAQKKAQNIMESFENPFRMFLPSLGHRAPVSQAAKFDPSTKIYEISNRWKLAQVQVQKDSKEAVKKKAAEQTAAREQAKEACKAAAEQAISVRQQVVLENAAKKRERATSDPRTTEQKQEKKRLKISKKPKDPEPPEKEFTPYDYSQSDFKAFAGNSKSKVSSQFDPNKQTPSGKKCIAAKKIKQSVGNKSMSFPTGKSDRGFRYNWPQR
UniProt Q9HBU6: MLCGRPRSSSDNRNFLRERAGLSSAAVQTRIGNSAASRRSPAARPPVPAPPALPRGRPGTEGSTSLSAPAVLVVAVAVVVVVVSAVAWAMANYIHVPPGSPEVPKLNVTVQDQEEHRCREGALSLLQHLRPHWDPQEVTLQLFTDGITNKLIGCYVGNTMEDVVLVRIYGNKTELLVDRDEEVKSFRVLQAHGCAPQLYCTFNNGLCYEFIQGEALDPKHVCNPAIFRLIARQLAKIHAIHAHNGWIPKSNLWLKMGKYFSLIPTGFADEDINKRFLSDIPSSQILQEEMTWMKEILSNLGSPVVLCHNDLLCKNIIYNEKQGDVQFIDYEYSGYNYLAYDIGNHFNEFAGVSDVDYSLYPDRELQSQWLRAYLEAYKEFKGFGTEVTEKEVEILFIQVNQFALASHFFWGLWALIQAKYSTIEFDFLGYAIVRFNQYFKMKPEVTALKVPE
UniProt Q969W3: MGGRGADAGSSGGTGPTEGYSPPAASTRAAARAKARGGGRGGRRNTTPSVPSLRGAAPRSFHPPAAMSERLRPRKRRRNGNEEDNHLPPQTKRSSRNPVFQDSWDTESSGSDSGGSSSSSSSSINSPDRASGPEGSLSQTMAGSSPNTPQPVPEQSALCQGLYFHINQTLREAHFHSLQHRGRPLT
UniProt Q96KP1: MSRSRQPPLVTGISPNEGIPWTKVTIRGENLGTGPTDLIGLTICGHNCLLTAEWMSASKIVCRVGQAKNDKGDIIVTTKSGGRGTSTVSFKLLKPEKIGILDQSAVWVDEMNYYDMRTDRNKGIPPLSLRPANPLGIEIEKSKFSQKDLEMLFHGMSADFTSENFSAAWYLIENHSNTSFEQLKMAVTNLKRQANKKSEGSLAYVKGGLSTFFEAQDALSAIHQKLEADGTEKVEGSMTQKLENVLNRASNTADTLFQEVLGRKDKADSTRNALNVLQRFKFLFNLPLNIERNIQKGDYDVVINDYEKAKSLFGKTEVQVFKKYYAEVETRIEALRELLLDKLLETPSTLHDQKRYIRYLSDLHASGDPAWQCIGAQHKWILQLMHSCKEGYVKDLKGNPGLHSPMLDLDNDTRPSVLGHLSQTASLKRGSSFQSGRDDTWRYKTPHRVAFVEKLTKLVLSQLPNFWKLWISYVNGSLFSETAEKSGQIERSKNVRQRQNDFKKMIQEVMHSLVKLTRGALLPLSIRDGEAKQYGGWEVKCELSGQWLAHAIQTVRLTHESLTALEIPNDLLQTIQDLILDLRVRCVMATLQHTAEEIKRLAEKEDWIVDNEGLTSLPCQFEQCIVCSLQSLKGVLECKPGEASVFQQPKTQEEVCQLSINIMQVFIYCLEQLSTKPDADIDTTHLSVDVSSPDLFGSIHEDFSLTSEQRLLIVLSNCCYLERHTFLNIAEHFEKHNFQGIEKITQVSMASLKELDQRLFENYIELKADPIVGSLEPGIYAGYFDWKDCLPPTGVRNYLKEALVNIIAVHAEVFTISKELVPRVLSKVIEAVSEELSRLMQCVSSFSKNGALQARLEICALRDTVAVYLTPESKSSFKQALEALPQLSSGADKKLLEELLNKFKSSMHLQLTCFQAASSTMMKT
UniProt Q9NWS6: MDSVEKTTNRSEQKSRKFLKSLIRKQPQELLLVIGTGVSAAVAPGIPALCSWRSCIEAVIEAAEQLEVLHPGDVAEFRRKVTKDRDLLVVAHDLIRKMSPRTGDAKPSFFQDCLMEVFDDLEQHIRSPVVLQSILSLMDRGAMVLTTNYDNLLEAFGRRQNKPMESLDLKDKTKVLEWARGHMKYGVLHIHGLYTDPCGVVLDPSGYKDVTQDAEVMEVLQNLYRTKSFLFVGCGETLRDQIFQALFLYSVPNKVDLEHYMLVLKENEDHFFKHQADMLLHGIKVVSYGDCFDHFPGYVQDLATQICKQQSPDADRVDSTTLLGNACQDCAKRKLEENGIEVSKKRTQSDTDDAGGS
UniProt Q13868, whole entry, looked up: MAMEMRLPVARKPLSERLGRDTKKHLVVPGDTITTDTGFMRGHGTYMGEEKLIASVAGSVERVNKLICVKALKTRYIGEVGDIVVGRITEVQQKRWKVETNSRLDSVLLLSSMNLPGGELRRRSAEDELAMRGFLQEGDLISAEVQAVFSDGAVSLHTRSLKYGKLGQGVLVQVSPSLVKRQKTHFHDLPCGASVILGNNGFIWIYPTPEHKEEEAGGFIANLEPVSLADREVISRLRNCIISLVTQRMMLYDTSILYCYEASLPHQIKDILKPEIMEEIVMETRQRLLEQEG
UniProt Q01469, whole entry, looked up: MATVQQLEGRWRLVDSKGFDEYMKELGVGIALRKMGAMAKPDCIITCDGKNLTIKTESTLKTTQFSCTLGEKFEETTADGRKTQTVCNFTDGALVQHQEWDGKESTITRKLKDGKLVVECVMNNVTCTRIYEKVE
UniProt Q9Y5Q0: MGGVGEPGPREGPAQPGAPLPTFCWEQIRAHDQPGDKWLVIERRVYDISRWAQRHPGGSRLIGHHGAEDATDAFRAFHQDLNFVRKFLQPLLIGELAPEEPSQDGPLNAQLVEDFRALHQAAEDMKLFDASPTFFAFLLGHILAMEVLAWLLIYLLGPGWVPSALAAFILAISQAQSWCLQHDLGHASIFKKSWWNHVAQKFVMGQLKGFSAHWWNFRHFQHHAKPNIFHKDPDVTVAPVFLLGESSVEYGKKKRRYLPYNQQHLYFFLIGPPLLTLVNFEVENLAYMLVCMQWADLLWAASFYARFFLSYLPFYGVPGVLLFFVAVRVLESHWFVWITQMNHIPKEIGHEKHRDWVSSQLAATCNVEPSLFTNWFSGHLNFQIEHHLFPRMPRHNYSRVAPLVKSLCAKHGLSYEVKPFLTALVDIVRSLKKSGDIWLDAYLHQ
UniProt Q9NUQ9: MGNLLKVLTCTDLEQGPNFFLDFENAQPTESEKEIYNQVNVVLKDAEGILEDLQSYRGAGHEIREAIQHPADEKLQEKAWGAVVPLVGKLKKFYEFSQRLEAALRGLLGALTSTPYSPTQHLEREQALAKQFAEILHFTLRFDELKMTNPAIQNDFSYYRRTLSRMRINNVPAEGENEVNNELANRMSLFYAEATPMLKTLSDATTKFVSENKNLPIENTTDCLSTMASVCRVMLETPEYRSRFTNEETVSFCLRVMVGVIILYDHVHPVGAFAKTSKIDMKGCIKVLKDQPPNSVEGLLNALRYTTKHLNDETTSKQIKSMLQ
UniProt Q9NQT5, whole entry, looked up: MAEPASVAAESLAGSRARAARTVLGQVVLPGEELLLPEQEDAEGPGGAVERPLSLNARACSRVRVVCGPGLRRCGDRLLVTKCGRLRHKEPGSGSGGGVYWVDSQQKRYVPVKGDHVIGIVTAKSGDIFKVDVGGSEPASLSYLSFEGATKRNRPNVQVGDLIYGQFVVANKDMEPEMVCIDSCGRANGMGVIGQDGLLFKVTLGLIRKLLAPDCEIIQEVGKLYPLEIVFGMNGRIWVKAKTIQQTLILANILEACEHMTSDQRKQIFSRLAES

[2] = compound: CC1=C(SC2=C1C(=N[C@H](C3=NN=C(N32)C)CC(=O)N)C4=CC=C(C=C4)Cl)C
How it was run: as §1

[3] = compound: CC1=C2C(=CC=C1)N=C(N(C2=O)C3=CC=CC=C3C)CN4C=NC5=C(N=CN=C54)N
How it was run: as §1

[4] = compound: Cc1sc2c(c1C)C(c1ccc(Cl)cc1)=N[C@@H](CC(=O)OC(C)(C)C)c1nnc(C)n1-2
How it was run: as §1

[5] = compound: c1ccc([C@@H]2C[C@H]2NC2CCNCC2)cc1
How it was run: as §1

Measured: log2 fold change

FAM50A (UniProt Q14320)
inactive: [1] 0.009 | [2] 0.012 | [3] 0.007 | [4] -0.002 | [5] 0.014

FAM210B (UniProt Q96KR6)
inactive: [1] -0.007 | [2] -0.031 | [3] -0.001 | [4] -0.034 | [5] -0.098

FAM122B isoform 3 (UniProt Q7Z309)
inactive: [1] -0.028 | [2] -0.017 | [3] -0.101 | [4] 0.138 | [5] 0.149

EXOC7 (UniProt Q9UPT5)
inactive: [1] -0.07 | [2] -0.008 | [3] 0.046 | [4] -0.067 | [5] 0.012

FAM76A isoform 3 (UniProt Q8TAV0)
inactive: [1] -0.054 | [2] 0.054 | [3] -0.026 | [4] -0.023 | [5] 0.019

ESD (UniProt P10768)
inactive: [1] -0.004 | [2] 0.025 | [3] -0.008 | [4] 0.045 | [5] 0.013

FAM162A (UniProt Q96A26)
inactive: [1] 0.06 | [2] 0.028 | [3] -0.041 | [4] 0.053 | [5] 0.044

ESRRA (UniProt P11474)
inactive: [1] 0.204 | [2] -0.018 | [3] 0.029 | [4] 0.046 | [5] 0.264

FAM20B (UniProt O75063)
inactive: [1] -0.047 | [2] -0.012 | [3] 0.081 | [4] 0.098 | [5] 0.017

FAM207A (UniProt Q9NSI2)
inactive: [1] 0.032 | [2] 0.022 | [3] 0 | [4] 0.04 | [5] 0.032

ERVK3-1, A0A0U1RQV1
inactive: [1] 0.019 | [2] -0.07 | [3] 0.034 | [4] -0.07 | [5] -0.093

EXOSC10 (UniProt Q01780)
inactive: [1] 0.026 | [2] -0.014 | [3] -0.005 | [4] 0.038 | [5] -0.017

ETNK1 (UniProt Q9HBU6)
inactive: [1] -0.008 | [2] -0.038 | [3] 0.031 | [4] -0.045 | [5] -0.033

FAHD2A (UniProt Q96GK7)
inactive: [1] -0.002 | [2] 0.024 | [3] -0.013 | [4] -0.011 | [5] 0.008

FAM104A isoform 2 (UniProt Q969W3)
inactive: [1] 0.053 | [2] 0.02 | [4] -0.145

ETHE1 (UniProt O95571)
inactive: [1] 0.008 | [2] 0.003 | [3] 0.008 | [4] 0.048 | [5] -0.147

EXOC2 (UniProt Q96KP1)
inactive: [1] -0.01 | [2] -0.018 | [3] -0.013 | [4] -0.019 | [5] 0.063

FAM118A (UniProt Q9NWS6)
inactive: [1] -0.028 | [2] -0.033 | [3] -0.021 | [4] -0.108 | [5] -0.015

FAM133B (UniProt Q5BKY9)
inactive: [1] 0.148 | [2] -0.014 | [3] -0.26 | [4] -0.028 | [5] 0.156

FAM193A, A0A1B0GVL4
inactive: [1] -0.041 | [2] -0.036 | [3] 0 | [5] -0.024

EXOSC2 (UniProt Q13868)
inactive: [1] 0.005 | [2] 0.011 | [3] 0.004 | [4] -0.011 | [5] -0.026

FABP5 (UniProt Q01469)
inactive: [1] 0.047 | [2] -0.004 | [3] -0.083 | [4] 0.059 | [5] -0.018

FADS3 (UniProt Q9Y5Q0)
inactive: [1] 0.021 | [2] 0.018 | [3] -0.227 | [4] -0.06 | [5] -0.115

FAM49A (UniProt Q9H0Q0)
inactive: [1] 0.139 | [2] -0.001 | [3] 0.053 | [5] -0.085

7 successive records already listed:
ETHE1 (UniProt O95571)
inactive: [1] 0.008 | [2] 0.003 | [3] 0.008 | [4] 0.048 | [5] -0.147

EXOC2 (UniProt Q96KP1)
inactive: [1] -0.01 | [2] -0.018 | [3] -0.013 | [4] -0.019 | [5] 0.063

FAM118A (UniProt Q9NWS6)
inactive: [1] -0.028 | [2] -0.033 | [3] -0.021 | [4] -0.108 | [5] -0.015

FAM133B (UniProt Q5BKY9)
inactive: [1] 0.148 | [2] -0.014 | [3] -0.26 | [4] -0.028 | [5] 0.156

FAM193A, A0A1B0GVL4
inactive: [1] -0.041 | [2] -0.036 | [3] 0 | [5] -0.024

EXOSC2 (UniProt Q13868)
inactive: [1] 0.005 | [2] 0.011 | [3] 0.004 | [4] -0.011 | [5] -0.026

FABP5 (UniProt Q01469)
inactive: [1] 0.047 | [2] -0.004 | [3] -0.083 | [4] 0.059 | [5] -0.018

Further records:

FAM49B (UniProt Q9NUQ9)
inactive: [1] 0.032 | [2] -0.001 | [3] -0.016 | [4] -0.014 | [5] 0.024

EXOSC3 (UniProt Q9NQT5)
inactive: [1] -0.007 | [2] 0.026 | [3] 0.002 | [4] -0.045 | [5] 0.002
